This is one part of the list.
Experiments:
Experiment in all cases: log2 fold change, soluble protein after heating vs DMSO (PISA); higher = thermal stabilisation; K562 cells, 10 uM, 30 min; active = over 0.2 and 3.5 SD of the protein, either way, in both replicates (recomputed)
[1] = compound: C1=CC=C(C=C1)[C@H](COC2=CC3=C(C=C2)NC(=O)N3)NC(=O)C4=CC=CN(C4=O)CC5=CC(=C(C=C5)F)F
In short: (§1)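 Values are thermal stability changes relative to control samples and are taken from duplicates. They are stated as log2 fold changes. Before quantification by TMTpro 16plex LC-MS/MS with equalised channel sums, K562 cells at 2×10^6 cells/mL were treated with 10 μM compound for 30 min, heated in aliquots for 3 min across 48°C-58°C, pooled, extracted in PBS with 0.5% NP-40 at 4°C, and centrifuged at 21,000xg for 90 min to give the soluble supernatant.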

Sequences of proteins named here, by UniProt entry; tags and fusion partners are left off. A change or cut given only in a name is not applied to a line headed by its entry.
UniProt Q5T6F2: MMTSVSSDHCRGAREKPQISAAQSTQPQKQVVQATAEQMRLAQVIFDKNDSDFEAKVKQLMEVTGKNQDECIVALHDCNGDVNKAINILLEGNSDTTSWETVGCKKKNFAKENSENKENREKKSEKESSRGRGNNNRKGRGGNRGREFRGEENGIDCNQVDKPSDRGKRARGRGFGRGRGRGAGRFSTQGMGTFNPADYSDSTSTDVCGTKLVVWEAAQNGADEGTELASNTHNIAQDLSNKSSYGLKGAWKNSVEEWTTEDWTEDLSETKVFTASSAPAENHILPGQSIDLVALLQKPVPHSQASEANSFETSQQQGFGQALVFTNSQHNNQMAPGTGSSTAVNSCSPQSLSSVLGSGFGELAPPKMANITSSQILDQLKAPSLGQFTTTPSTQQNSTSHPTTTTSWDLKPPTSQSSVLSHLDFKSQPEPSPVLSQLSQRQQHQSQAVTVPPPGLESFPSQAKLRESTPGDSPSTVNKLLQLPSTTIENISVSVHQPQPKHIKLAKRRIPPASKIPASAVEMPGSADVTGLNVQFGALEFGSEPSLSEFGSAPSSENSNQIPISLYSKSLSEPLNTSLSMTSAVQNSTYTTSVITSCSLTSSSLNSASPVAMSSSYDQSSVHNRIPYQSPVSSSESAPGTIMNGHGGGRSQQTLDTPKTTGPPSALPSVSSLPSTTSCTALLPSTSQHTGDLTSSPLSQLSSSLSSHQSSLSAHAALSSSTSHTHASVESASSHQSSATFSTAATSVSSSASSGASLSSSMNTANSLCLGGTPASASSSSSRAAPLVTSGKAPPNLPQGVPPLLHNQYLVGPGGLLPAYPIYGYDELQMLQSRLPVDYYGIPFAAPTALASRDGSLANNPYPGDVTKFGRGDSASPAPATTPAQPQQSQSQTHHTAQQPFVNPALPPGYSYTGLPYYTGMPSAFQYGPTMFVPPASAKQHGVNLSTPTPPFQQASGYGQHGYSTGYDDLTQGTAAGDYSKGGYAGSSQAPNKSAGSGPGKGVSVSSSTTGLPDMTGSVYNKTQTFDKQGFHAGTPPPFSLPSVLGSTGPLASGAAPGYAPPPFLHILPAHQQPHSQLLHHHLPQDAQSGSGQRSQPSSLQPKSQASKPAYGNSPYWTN
UniProt Q9H3M7: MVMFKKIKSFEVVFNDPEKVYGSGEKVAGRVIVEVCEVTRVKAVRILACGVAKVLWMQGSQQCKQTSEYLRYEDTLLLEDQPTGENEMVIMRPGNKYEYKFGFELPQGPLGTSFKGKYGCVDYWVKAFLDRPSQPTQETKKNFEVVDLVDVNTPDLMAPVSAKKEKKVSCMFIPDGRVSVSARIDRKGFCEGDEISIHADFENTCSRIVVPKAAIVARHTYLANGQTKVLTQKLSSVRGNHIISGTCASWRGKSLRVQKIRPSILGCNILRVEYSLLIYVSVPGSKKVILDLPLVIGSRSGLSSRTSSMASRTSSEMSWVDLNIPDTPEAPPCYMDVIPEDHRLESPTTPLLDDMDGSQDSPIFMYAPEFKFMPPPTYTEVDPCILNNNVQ
UniProt Q13630: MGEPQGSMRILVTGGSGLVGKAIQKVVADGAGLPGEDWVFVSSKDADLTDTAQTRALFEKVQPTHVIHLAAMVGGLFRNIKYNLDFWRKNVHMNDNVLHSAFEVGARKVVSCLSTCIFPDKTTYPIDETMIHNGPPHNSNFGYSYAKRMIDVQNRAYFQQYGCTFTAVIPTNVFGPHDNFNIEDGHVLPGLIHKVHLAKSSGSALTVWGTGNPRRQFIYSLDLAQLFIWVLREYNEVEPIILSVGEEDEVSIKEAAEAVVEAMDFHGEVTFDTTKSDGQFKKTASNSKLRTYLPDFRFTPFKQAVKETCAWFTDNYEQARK
UniProt P33981: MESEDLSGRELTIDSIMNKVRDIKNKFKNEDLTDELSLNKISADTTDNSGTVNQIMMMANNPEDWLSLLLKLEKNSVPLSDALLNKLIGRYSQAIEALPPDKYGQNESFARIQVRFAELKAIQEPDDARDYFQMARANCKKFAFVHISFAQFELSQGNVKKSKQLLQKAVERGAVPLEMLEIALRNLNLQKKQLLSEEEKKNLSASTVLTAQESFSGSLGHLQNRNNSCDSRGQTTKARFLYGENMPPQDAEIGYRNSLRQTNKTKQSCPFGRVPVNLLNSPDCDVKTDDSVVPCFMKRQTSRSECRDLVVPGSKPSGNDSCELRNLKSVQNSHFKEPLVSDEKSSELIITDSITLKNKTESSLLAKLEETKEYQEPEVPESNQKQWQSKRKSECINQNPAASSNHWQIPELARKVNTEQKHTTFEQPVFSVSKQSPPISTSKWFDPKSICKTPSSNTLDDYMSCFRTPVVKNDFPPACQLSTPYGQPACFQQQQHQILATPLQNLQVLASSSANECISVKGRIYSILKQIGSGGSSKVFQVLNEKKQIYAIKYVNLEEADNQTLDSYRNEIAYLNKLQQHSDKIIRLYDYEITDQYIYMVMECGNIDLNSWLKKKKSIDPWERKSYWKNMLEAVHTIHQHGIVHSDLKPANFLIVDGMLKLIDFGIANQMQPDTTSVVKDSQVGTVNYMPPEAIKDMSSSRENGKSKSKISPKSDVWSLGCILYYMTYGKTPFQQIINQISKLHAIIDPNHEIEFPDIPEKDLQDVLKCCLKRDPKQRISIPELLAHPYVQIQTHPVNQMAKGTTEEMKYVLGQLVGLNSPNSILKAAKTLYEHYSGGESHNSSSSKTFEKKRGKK
UniProt Q9UNY4: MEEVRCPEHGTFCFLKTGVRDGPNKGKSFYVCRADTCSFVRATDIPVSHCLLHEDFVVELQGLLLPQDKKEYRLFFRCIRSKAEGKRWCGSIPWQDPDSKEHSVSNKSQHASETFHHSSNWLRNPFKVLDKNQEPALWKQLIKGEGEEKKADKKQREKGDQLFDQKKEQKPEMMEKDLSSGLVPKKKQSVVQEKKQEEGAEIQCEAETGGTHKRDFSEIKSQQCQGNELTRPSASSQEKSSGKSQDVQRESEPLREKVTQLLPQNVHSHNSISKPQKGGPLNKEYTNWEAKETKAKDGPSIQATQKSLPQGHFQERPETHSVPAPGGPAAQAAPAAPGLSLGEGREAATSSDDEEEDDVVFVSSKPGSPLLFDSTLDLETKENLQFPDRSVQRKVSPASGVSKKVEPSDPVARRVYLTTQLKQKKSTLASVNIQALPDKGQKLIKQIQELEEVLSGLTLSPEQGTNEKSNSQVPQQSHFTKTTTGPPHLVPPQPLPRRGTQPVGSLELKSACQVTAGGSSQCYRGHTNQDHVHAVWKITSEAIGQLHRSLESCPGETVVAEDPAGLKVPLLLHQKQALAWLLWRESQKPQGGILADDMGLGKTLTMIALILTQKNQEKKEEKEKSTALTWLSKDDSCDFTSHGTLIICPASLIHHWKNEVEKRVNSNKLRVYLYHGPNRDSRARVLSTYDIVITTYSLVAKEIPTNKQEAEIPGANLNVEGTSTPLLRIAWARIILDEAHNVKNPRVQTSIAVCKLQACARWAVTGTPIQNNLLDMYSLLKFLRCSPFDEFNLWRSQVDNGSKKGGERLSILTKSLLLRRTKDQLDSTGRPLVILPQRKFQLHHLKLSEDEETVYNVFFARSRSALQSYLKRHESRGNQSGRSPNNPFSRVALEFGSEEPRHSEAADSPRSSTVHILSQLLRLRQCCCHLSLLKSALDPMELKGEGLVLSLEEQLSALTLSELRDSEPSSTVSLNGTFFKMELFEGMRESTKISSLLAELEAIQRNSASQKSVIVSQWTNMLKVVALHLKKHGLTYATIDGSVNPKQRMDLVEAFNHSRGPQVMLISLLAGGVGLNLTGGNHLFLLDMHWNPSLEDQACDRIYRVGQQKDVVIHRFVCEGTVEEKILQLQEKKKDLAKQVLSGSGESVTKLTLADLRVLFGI
UniProt O14530: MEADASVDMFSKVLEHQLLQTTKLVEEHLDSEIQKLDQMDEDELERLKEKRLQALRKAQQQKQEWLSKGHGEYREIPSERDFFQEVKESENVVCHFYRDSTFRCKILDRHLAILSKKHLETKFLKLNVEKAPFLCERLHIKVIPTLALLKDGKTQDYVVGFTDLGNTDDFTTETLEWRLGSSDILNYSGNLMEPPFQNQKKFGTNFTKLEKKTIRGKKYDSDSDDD
UniProt Q6PID6, whole entry, looked up: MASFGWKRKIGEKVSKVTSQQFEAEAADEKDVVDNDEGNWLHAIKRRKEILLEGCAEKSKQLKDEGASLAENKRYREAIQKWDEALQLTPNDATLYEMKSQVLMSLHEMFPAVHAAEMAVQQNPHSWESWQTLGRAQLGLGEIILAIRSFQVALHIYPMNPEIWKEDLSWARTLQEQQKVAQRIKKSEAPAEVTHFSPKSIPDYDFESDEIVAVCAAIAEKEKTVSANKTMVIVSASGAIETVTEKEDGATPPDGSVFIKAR
UniProt Q8NBP0: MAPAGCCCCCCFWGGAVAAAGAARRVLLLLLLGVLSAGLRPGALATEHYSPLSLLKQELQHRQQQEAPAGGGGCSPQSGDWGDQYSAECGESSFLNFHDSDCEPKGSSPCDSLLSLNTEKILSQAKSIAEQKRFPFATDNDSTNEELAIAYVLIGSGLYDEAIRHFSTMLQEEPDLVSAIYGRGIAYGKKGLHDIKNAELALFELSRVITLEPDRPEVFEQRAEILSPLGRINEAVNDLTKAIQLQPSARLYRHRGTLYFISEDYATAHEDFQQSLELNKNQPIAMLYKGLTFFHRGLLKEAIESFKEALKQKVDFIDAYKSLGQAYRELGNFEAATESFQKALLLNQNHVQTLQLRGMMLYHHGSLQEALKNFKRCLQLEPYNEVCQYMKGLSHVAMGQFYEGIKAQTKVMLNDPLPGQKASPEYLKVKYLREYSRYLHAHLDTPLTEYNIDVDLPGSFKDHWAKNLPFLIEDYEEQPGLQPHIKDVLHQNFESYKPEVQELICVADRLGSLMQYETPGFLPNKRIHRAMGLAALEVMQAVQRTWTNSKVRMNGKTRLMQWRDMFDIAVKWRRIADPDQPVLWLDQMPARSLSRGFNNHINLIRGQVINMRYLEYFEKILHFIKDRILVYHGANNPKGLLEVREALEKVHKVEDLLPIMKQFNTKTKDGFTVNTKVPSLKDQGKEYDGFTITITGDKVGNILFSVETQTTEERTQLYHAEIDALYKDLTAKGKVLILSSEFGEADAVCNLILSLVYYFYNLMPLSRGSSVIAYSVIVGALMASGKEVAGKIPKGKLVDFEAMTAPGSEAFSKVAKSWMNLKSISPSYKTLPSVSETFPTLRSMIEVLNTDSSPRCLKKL
UniProt Q9H892: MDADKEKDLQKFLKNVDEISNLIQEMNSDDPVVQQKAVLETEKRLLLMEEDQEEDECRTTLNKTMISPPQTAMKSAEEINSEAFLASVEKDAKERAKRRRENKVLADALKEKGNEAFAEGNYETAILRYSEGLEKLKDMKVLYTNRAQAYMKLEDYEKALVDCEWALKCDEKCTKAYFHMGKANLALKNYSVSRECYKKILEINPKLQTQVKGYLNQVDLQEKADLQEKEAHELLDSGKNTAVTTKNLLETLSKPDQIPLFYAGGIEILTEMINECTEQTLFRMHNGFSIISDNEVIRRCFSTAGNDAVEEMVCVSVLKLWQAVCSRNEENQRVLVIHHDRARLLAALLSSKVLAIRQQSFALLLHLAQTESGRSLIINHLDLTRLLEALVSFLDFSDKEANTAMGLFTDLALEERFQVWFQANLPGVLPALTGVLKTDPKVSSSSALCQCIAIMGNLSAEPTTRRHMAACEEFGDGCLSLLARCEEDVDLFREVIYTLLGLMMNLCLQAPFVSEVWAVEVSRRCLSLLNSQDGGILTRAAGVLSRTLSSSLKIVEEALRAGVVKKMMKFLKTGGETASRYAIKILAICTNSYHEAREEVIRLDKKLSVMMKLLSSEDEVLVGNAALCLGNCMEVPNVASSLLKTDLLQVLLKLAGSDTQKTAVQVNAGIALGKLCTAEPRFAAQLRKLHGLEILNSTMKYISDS
UniProt A2RUC4: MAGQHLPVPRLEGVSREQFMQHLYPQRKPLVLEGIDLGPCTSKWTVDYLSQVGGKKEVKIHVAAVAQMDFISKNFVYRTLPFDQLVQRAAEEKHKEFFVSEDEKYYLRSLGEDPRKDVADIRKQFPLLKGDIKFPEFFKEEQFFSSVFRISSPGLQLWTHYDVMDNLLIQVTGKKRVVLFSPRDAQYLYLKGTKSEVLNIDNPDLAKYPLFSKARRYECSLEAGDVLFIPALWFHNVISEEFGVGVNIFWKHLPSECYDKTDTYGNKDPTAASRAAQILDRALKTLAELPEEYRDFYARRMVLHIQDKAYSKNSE
UniProt O14817: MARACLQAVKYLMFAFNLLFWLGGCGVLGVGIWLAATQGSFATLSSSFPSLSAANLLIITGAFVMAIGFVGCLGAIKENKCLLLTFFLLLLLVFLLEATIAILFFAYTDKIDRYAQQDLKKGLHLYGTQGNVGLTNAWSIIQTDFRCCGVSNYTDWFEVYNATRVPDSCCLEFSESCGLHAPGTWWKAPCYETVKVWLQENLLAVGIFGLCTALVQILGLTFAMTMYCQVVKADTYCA

[2] = compound: CC1=C(SC2=C1C(=N[C@H](C3=NN=C(N32)C)CC(=O)N)C4=CC=C(C=C4)Cl)C
In short: as §1

[3] = compound: CC1=C2C(=CC=C1)N=C(N(C2=O)C3=CC=CC=C3C)CN4C=NC5=C(N=CN=C54)N
In short: as §1

[4] = compound: Cc1sc2c(c1C)C(c1ccc(Cl)cc1)=N[C@@H](CC(=O)OC(C)(C)C)c1nnc(C)n1-2
In short: as §1

[5] = compound: c1ccc([C@@H]2C[C@H]2NC2CCNCC2)cc1
In short: as §1

Measured: log2 fold change

UBE2A (UniProt P49459)
inactive: [1] 0.023 | [2] 0.037 | [3] 0.043 | [4] 0.047 | [5] -0.085

UBAP2 (UniProt Q5T6F2)
inactive: [1] 0.021 | [2] 0.003 | [3] -0.015 | [4] 0.017 | [5] 0.043

TSPO (UniProt P30536)
inactive: [1] -0.004 | [2] 0.062 | [3] 0.057 | [4] -0.085 | [5] 0.04

TXNIP (UniProt Q9H3M7)
inactive: [1] -0.011 | [2] 0.148 | [3] -0.012 | [4] -0.039 | [5] -0.099

TSG101 (UniProt Q99816)
inactive: [1] 0 | [2] 0.032 | [3] 0.074 | [4] -0.015 | [5] -0.016

TXNL1 (UniProt O43396)
inactive: [1] 0.005 | [2] 0.051 | [3] 0.056 | [4] -0.01 | [5] 0.015

TUT4 (UniProt Q5TAX3)
inactive: [1] -0.029 | [2] -0.181 | [3] 0.214 | [4] -0.052 | [5] 0.153

TXN2 (UniProt Q99757)
inactive: [1] 0.027 | [2] 0.144 | [3] 0.039 | [4] -0.079 | [5] -0.067

TXNDC11 (UniProt Q6PKC3)
inactive: [1] 0.043 | [2] 0.026 | [3] -0.032 | [4] -0.031 | [5] -0.01

TTI2 (UniProt Q6NXR4)
inactive: [1] 0.07 | [2] 0.027 | [3] 0.031 | [4] 0.028 | [5] 0.041

UBE2NL (UniProt Q5JXB2)
inactive: [1] -0.031 | [2] 0.119 | [3] 0.061 | [4] -0.12 | [5] -0.02

TSPYL1 (UniProt Q9H0U9)
inactive: [2] -0.008 | [5] -0.022

TSTA3 (UniProt Q13630)
inactive: [1] -0.023 | [2] -0.012 | [3] 0.011 | [4] 0.012 | [5] 0.029

TSKU (UniProt Q8WUA8)
inactive: [2] 0.048 | [3] -0.03 | [4] 0.231 | [5] -0.151

TUBGCP4 (UniProt Q9UGJ1)
inactive: [1] -0.252 | [2] 0.224 | [4] 0.069 | [5] 0.159

TTK (UniProt P33981)
inactive: [3] -0.15

TXNDC16 (UniProt Q9P2K2)
inactive: [2] -0.066 | [3] 0.064 | [4] 0.012 | [5] 0.013

TSNAX (UniProt Q99598)
inactive: [1] 0.024 | [2] 0.008 | [3] 0.006 | [4] -0.008 | [5] 0.021

TTF2 (UniProt Q9UNY4)
inactive: [2] 0.06 | [3] 0.024 | [4] 0.127 | [5] -0.041

UBE2F isoform 2 (UniProt Q969M7)
inactive: [1] 0.015 | [2] 0.022 | [3] 0.003 | [4] -0.078 | [5] 0.063

TVP23C (UniProt Q96ET8)
inactive: [2] 0.048 | [3] 0.041 | [4] 0.029 | [5] 0.086

TUBGCP5 (UniProt Q96RT8)
inactive: [1] 0.042 | [2] -0.05 | [4] 0.051 | [5] 0.023

TUBB (UniProt P07437)
inactive: [1] 0.033 | [2] 0.062 | [3] 0.039 | [4] -0.031 | [5] -0.078

UBE2L5, A0A1B0GUS4
inactive: [2] 0.014 | [3] 0.285 | [4] -0.004 | [5] -0.059

TXNDC9 (UniProt O14530)
inactive: [1] 0.02 | [2] 0.004 | [3] 0.003 | [4] 0.015 | [5] 0.015

TTC33 (UniProt Q6PID6)
inactive: [1] -0.142 | [2] 0.018 | [3] 0.073 | [5] 0.019

11 neighbouring records out of the list so far, quoted:
TSPYL1 (UniProt Q9H0U9)
inactive: [2] -0.008 | [5] -0.022

TSTA3 (UniProt Q13630)
inactive: [1] -0.023 | [2] -0.012 | [3] 0.011 | [4] 0.012 | [5] 0.029

TSKU (UniProt Q8WUA8)
inactive: [2] 0.048 | [3] -0.03 | [4] 0.231 | [5] -0.151

TUBGCP4 (UniProt Q9UGJ1)
inactive: [1] -0.252 | [2] 0.224 | [4] 0.069 | [5] 0.159

TTK (UniProt P33981)
inactive: [3] -0.15

TXNDC16 (UniProt Q9P2K2)
inactive: [2] -0.066 | [3] 0.064 | [4] 0.012 | [5] 0.013

TSNAX (UniProt Q99598)
inactive: [1] 0.024 | [2] 0.008 | [3] 0.006 | [4] -0.008 | [5] 0.021

TTF2 (UniProt Q9UNY4)
inactive: [2] 0.06 | [3] 0.024 | [4] 0.127 | [5] -0.041

UBE2F isoform 2 (UniProt Q969M7)
inactive: [1] 0.015 | [2] 0.022 | [3] 0.003 | [4] -0.078 | [5] 0.063

TVP23C (UniProt Q96ET8)
inactive: [2] 0.048 | [3] 0.041 | [4] 0.029 | [5] 0.086

TUBGCP5 (UniProt Q96RT8)
inactive: [1] 0.042 | [2] -0.05 | [4] 0.051 | [5] 0.023

The list continues:

UBAP2L (UniProt F8W726)
inactive: [1] -0.05 | [4] 0.046

U2AF1L5 (UniProt P0DN76)
inactive: [1] -0.008 | [3] -0.075 | [4] 0.057

TTC14 (UniProt Q96N46)
inactive: [1] 0.038 | [2] 0.434 | [4] -0.059 | [5] -0.008

TWNK (UniProt Q96RR1)
inactive: [1] 0.047 | [3] -0.191 | [4] -0.034

UBE2H (UniProt P62256)
inactive: [1] 0.032 | [2] 0.044 | [3] 0.051 | [4] 0.05 | [5] 0.071

TXNRD1 isoform 7 (UniProt Q16881)
inactive: [1] 0.046 | [3] 0.138

TTC13 (UniProt Q8NBP0)
inactive: [2] -0.05 | [3] 0.028 | [4] 0.027 | [5] -0.027

TTMP isoform 3 (UniProt Q5BVD1)
inactive: [1] 0.072 | [2] 0.401 | [4] 0.06 | [5] -0.042

TXNDC2 (UniProt Q86VQ3)
inactive: [1] 0.228 | [3] -0.036

TSPYL4 (UniProt Q9UJ04)
inactive: [3] 0.268

TUBA3C (UniProt P0DPH7)
inactive: [1] -0.076 | [2] 0.112 | [3] -0.001 | [4] -0.025 | [5] -0.037

TTC21B (UniProt Q7Z4L5)
inactive: [4] -0.016

TTC12 isoform 2 (UniProt Q9H892)
inactive: [1] 0.086 | [2] -0.163 | [4] -0.149 | [5] 0.125

TYW5 (UniProt A2RUC4)
inactive: [3] -0.057 | [4] -0.004

TST (UniProt Q16762)
inactive: [2] 0.213 | [3] -0.038 | [5] -0.308

UBE2S (UniProt Q16763)
inactive: [1] 0.002 | [2] 0.053 | [3] 0.106 | [4] 0 | [5] 0.013

TSPAN31 (UniProt Q12999)
inactive: [2] -0.1 | [4] 0.116 | [5] 0.04

TTC37 (UniProt Q6PGP7)
inactive: [1] 0.042 | [3] 0.177

TTC26
inactive: [1] 0.06 | [3] 0.02 | [4] 0.198

TSPAN4 (UniProt O14817)
inactive: [1] 0.006 | [4] 0.128

UBE2D1 (UniProt P51668)
inactive: [1] -0.053 | [2] -0.014 | [3] 0.065 | [4] -0.081 | [5] -0.035

TUT7 (UniProt Q5VYS8)
inactive: [2] 0.025 | [4] 0.115 | [5] 0.033

UBE2E1 (UniProt P51965)
inactive: [1] -0.107 | [3] 0.296 | [4] 0.036

TTC27 (UniProt Q6P3X3)
inactive: [1] 0 | [2] -0.106 | [3] 0.072 | [4] 0.052 | [5] 0.01
